# Target: NTR-1 (Rattus norvegicus, UniProt P20789)
# The chains behind the UniProt entries cited, without tags or fusion partners.
# UniProt P20789, whole entry: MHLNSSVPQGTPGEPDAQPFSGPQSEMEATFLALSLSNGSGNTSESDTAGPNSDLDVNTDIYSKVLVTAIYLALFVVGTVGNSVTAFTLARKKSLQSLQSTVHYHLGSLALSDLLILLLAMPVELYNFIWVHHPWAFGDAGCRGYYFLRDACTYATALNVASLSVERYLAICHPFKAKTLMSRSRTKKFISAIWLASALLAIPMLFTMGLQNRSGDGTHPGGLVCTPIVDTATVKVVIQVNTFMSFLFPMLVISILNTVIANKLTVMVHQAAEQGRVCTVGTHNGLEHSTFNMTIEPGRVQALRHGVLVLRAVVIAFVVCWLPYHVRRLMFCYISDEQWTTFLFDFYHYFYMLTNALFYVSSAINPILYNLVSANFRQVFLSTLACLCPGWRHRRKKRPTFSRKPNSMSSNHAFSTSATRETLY
# Assay: Hypothermia induction in rats (rectal temperature)
# Format: in vivo
smiles,measurement,setting,value
"CC(C)C[C@H](NC(=O)[C@@H](NC(=O)[C@H](Cc1ccc(O)cc1)NC(=O)[C@@H]1CCCN1C(=O)[C@H](CCCNC(=N)N)NC(=O)[C@H](CCCCCN)N=[N+]=[N-])C(C)(C)C)C(=O)O [ABS13, N3-L-homolysine-Arg-Pro-Tyr-tertLeu-Leu-COOH]",IP Dose tmax,"IP 5 mg/kg, Table 9",2.5 h
same,IP Dose Δ in BT (° C.),"IP 5 mg/kg, at tmax, Table 9",−4.26 °C
same,Oral Dose tmax,oral 20 mg/kg,1.5 h
same,Oral Dose Δ in BT (° C.),"oral 20 mg/kg, at tmax",−1.66 °C

# Source: patent publication US20080234202A1, “Non-natural amino acids and neurotensin analogues” (priority 2004, published 2008)
